Consider 62 compounds from PubChem BioAssay AID2685 (National Center for Advancing Translational Sciences (NCATS), 2010).

The list shows a part of the results. These are further read-outs of the screen, such as a control signal, another cell line or another target. No call is given for them. The list favours compounds with an active or inconclusive main result. Potencies come from curve fits of mixed quality, noted in brackets.

This experiment in a line: qHTS Assay for Lipid Storage Modulators in Drosophila S3 Cells.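 For cell number change: cells counted by Cell Tracker Red CMTPX staining in the red channel.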 The settings on record: BODIPY lipid droplet fluorescence, 18-24 h; for cell number change: measured here: cell count max response, cells fed with added oleic acid. Summed up:
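Drosophila S3 cells got compounds at several concentrations plus oleic acid (400 uM solution). Laser-scanning cytometry with 488 nm excitation read lipid droplets at 500-530 nm and cells at 575-640 nm. Percent activity was relative to 20 uM Triacsin C.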
(Quantitative high-throughput screening tests each substance at several concentrations.)

Setting [1] is: measured here: cell number channel AC50, cells fed with added oleic acid.
[2] abbreviates: measured here: lipid fluorescence (Fed channel) AC50, cells fed with added oleic acid.

The AC50 is the concentration at which the activity in the assay is half-maximal. A high value points to weaker potency.

In the case of `Cc1ccc(CN2CCN(Cc3ccccc3C(F)(F)F)CC2)cc1`, the cell number change was -49.6%. In addition, the AC50 under setting [1] is 16.4 µM [falling, partial curve].

In the case of `CCn1c(SCC(=O)N2CCCc3ccccc32)nnc1-c1c[nH]c2ccccc12`, the cell number change is -53.8%. Moreover, the AC50 under setting [1] was 32.6 µM [falling, single point]. In addition, the AC50 under setting [2] was 16.4 µM [falling, partial curve].

On to `CCn1c(CC(=O)Nc2ccc(C)cc2)nnc1SCC(=O)NCc1ccccc1`, for which the cell number change worked out at 85.9%. Moreover, the AC50 under setting [1] was 16.4 µM [rising, partial curve]. Further, under setting [2], the AC50 was 1.03 µM [rising, single point].

As for `Cc1ccccc1NC(=O)Cn1nnc2ccccc21`, the AC50 under setting [1] was 0.184 µM [rising, full curve, poor fit].

As to `COC(=O)c1ccc(C(=O)NC2CCCc3c2cnn3-c2ccc(C)c(C)c2)cc1` (configuration not stated), the cell number change is -18.3%. In addition, the AC50 under setting [1] is 1.3 µM [falling, partial curve].

As for `CC(=O)OCC(=O)[C@H]1CC[C@H]2[C@@H]3CCC4=CC(=O)CC[C@]4(C)[C@H]3CC[C@]12C`, the cell number change came to 36.7%. Moreover, under setting [1], the AC50 was 0.651 µM [rising, full curve, poor fit]. The AC50 under setting [2] was 0.411 µM [rising, full curve, poor fit].

For the compound `COc1ccccc1C(=O)Nc1nnc(-c2ccco2)s1`, the AC50 under setting [2] is 6.51 µM [rising, partial curve, poor fit].

Regarding `COc1ccc(NC(=O)c2oc3ccccc3c2NC(=O)C2CCCO2)cc1OC` (configuration not stated), the cell number change amounted to 23.3%. In addition, the AC50 under setting [1] was 2.06 µM [rising, partial curve]. The concentration at half-maximal activity (AC50) under setting [2] was 2.31 µM [rising, full curve, poor fit].

With `O=C(Cc1ccccc1)NCC1CCCO1` (configuration not stated), the cell number change was found to be 27.3%. The concentration at half-maximal activity (AC50) under setting [2] was 0.184 µM [falling, full curve].

Consider `O=c1oc2c(O)cccc2cc1-c1nc2ccccc2[nH]1`, for which the cell number change was -19.2%. Further, under setting [2], the concentration at half-maximal activity (AC50) is 4.61 µM [falling, full curve].

Take `CCC1(CC)NC(=O)N(CC(=O)Nc2ccc(S(=O)(=O)N3CCOCC3)cc2)C1=O`: the cell number change came to 14.4%. Also, the AC50 under setting [2] was 16.4 µM [rising, single point].

Turning to `COC(=O)N/N=C(\C)c1ccc(Br)cc1`, the cell number change amounted to 26.5%.

On to `CN(Cc1ccccc1F)C(=O)CCNC(=O)c1ccc(C(C)(C)C)cc1`, for which the cell number change is -59.2%. The AC50 under setting [1] is 9.2 µM [falling, partial curve]. The AC50 under setting [2] was 23.1 µM [falling, partial curve, poor fit].

With `Cc1csc2nc(SCC(=O)Nc3ccccc3F)[nH]c(=O)c12`, the cell number change came to 14.1%.

Consider `COc1ccc(/C=C(/NC(=O)c2ccccc2)c2nc3ccccc3[nH]2)cc1OC`, for which the AC50 under setting [2] was 29.1 µM [rising, partial curve, poor fit].

Regarding `Cc1ccc2nc3c(cc2c1)c(NC(=O)C1CCCO1)nn3CC(C)C` (configuration not stated), the concentration at half-maximal activity (AC50) under setting [2] was 1.46 µM [rising, full curve].

For the compound `CC(C)=CC(=O)Nc1ccc2c(c1)OCO2`, the cell number change was determined as 37.6%. Besides, the AC50 under setting [1] is 0.092 µM [rising, full curve, poor fit]. Besides, the AC50 under setting [2] was 0.116 µM [rising, full curve, poor fit].

As to `Cc1cc(C)c(C)c(S(=O)(=O)N2CCN(c3ccccn3)CC2)c1C`, the cell number change was 18.8%. Moreover, the AC50 under setting [2] was 29.1 µM [rising, single point].

`O=C(/C=C/c1cccs1)N1CCN(c2ccccc2)CC1`: the cell number change worked out at 9.55%. In addition, the AC50 under setting [2] is 0.411 µM [falling, single point].

In the case of `COc1ccc(CCNC(=S)NCc2ccc(Cl)c(Cl)c2)cc1OC`, the cell number change was 4.31%.

In the case of `O=C(O)CSCC(=O)c1ccccc1`, the cell number change was 2.04%. Besides, under setting [2], the AC50 was 5.17 µM [rising, partial curve].

`CCN1C(=O)/C(=C/C=C2/SCCN2C)SC1=S`: the AC50 under setting [2] was 6.51 µM [rising, single point].

For `CN(C)Cc1c(O)ccc2c(-c3ccccc3)cc(=O)oc12`, the cell number change came out at 2.11%. In addition, the AC50 under setting [2] was 1.84 µM [rising, partial curve].

`CCOC(=O)C1CCCN(c2c(NCCCN(CC)c3cccc(C)c3)c(=O)c2=O)C1` (configuration not stated): the cell number change was -1.65%. The AC50 under setting [2] was 0.146 µM [falling, full curve, poor fit].

As for `Nc1ccc(C(=O)OCC(=O)N2CCN(C(=O)c3ccco3)CC2)cc1[N+](=O)[O-]`, the cell number change was -13.6%. Moreover, the AC50 under setting [2] is 0.184 µM [falling, partial curve, poor fit].

For `COCCOC(=O)c1c(NC(=O)CNCc2ccco2)sc(C(N)=O)c1C`, the cell number change amounted to 17.1%.

On to `O=c1[nH]c(C2CCN(S(=O)(=O)c3ccc(C(F)(F)F)cc3)CC2)nc2c1nnn2Cc1ccccc1`, for which, under setting [2], the AC50 was 25.9 µM [falling, single point].

Turning to `CC1CC(C)CN(C(=O)CSc2ncnc3sccc23)C1` (configuration not stated), the cell number change came out at 6.51%. Moreover, the AC50 under setting [1] is 0.082 µM [falling, full curve, poor fit]. The AC50 under setting [2] is 7.31 µM [falling, partial curve, poor fit].

On to `CCOc1ccc(C(CC(=O)O)NC(=O)c2ccco2)cc1OC` (configuration not stated), for which the cell number change was -18.5%. Besides, the AC50 under setting [2] is 32.6 µM [falling, partial curve].

Take `N#CCCN(C(=O)COC(=O)c1cccc(S(=O)(=O)N2CCCC2)c1)c1ccc(F)cc1`: the cell number change was -6.35%. The AC50 under setting [2] is 0.58 µM [rising, single point].

`CCCCS(=O)(=O)c1sc2nc(C)cc(C)c2c1N`: the cell number change was -10.5%.

With `O=C(Cc1ccccc1)NCCCc1ccccc1`, the cell number change was -4.82%.

Consider `Cc1cc(N2CCN(c3nc4ccccc4s3)CC2)n2ncnc2n1`, for which the cell number change is 23.3%.

With `C=CCOc1ccc(C2/C(=C(\O)c3ccc(F)cc3)C(=O)C(=O)N2CCCN(C)C)cc1` (configuration not stated), the cell number change was determined as 3.16%.

Consider `O=C(Nc1ccccc1)C(=O)Nc1ccc2c(c1)N(C(=O)C1CC1)CCC2`, for which the cell number change came to 10.4%. Further, under setting [2], the AC50 is 18.4 µM [rising, single point].

Turning to `COc1ccccc1N1CCN(CC(O)COc2ccc(S(=O)(=O)N3CCOCC3)cc2)CC1` (configuration not stated), the cell number change came to 2.06%.

In the case of `COCCCN1C(=O)C(O)=C(C(=O)c2ccco2)C1c1cccc(Br)c1` (configuration not stated), the cell number change amounted to 14.5%. In addition, the AC50 under setting [2] is 29.1 µM [rising, single point].

Consider `CCCn1c(=N)n(CC(=O)c2cccs2)c2ccccc21`, for which the cell number change stood at 16.8%. Moreover, the AC50 under setting [2] was 29.1 µM [rising, single point].

On to `O=C(c1ccc(S(=O)(=O)N2CCCCC2)cc1)N1CCN=C1SCc1cccnc1`, for which the AC50 under setting [2] is 0.92 µM [rising, full curve, poor fit].

`Cc1cccc(CC(=O)NCC2CCCCC2)c1`: the cell number change is -11.6%. Moreover, the AC50 under setting [2] was 2.31 µM [rising, partial curve].

Consider `Cc1cc(C(=O)N/N=C/c2c(C)[nH]c3ccccc23)n[nH]1`, for which the cell number change amounted to 5.98%. In addition, the AC50 under setting [1] was 0.116 µM [falling, full curve, poor fit].

`CCOc1ccc(NC(=O)CS(=O)CC(=O)NC2CCCc3ccccc32)cc1` (configuration not stated): the cell number change was -20.4%.

Take `Cc1ccc(C(=O)NCC(=O)OCC(=O)N(CC(C)C)c2c(N)n(Cc3ccccc3)c(=O)[nH]c2=O)cc1C`: the cell number change amounted to 9%.

Regarding `O=C(c1cnn(-c2cccc(F)c2)c1)c1ccccc1O`, the cell number change is 19.1%. Moreover, the AC50 under setting [2] is 14.6 µM [rising, partial curve, poor fit].

As to `S=c1nc(C2CCCCC2)[nH][nH]1`, the cell number change is -61.3%. Besides, the AC50 under setting [1] was 16.4 µM [falling, partial curve, poor fit].

With `CN(C)S(=O)(=O)c1ccc(-c2csnn2)s1`, the cell number change is 44.5%. Under setting [1], the AC50 was 14.6 µM [rising, partial curve, poor fit].

Regarding `Cc1c(C(=O)C(=O)NCCC2=CCCCC2)c2ccccc2n1C`, the cell number change came out at 10.6%.

Regarding `Cc1ccc(S(=O)(=O)c2nc(S(=O)(=O)c3ccc(C)cc3)c(N3CCN(CCO)CC3)s2)cc1`, the cell number change is -45%. For the same compound, the AC50 under setting [1] was 0.0517 µM [falling, full curve, poor fit]. Besides, under setting [2], the AC50 was 29.1 µM [falling, partial curve, poor fit].

For `COc1ccc(CNC(=O)CCCN2C(=O)NC3(CCCC3)C2=O)cc1`, the cell number change was -30.4%. Moreover, the half-maximal activity concentration (AC50) under setting [1] was 6.51 µM [falling, partial curve, poor fit]. In addition, the AC50 under setting [2] was 6.51 µM [falling, partial curve, poor fit].

Consider `C=CCN1C(=O)C(O)(CC(=O)c2ccc(OC)cc2OC)c2cc(Br)ccc21` (configuration not stated), for which the cell number change came out at 3.9%. Also, the AC50 under setting [1] was 6.51 µM [rising, single point].

As to `CCOc1ccccc1NC=C1C(=O)OC(C)(C)OC1=O`, the cell number change was -17.9%. In addition, under setting [2], the concentration at half-maximal activity (AC50) was 29.1 µM [falling, partial curve, poor fit].

In the case of `COc1ccc(NC(=O)c2cccc(-n3c(C)ccc3C)c2)c(OC)c1`, the AC50 was 0.116 µM [falling, full curve, poor fit] under setting [1] and 0.103 µM [rising, full curve, poor fit] under setting [2].

As for `COc1ccc(-c2nsc(SCC(=O)NCc3ccc4c(c3)OCO4)n2)cc1`, the cell number change is -0.453%. The AC50 under setting [2] is 4.11 µM [rising, full curve, poor fit].

Consider `NS(=O)(=O)c1ccc(CCNC(=O)COC(=O)Cc2c(F)cccc2Cl)cc1`, for which the cell number change was found to be 0.156%. Further, the AC50 under setting [2] was 16.4 µM [falling, single point].

With `O=C1CC(C(=O)Nc2ccccc2)C2(CCCC2)O1` (configuration not stated), the cell number change is -74.2%. The AC50 under setting [1] is 29.1 µM [falling, single point].

As for `COc1ccc(S(=O)(=O)Nc2ccc(Cc3ccncc3)cc2)cc1C`, the cell number change is -36.1%. In addition, under setting [1], the AC50 is 11.6 µM [falling, partial curve, poor fit].

Consider `NS(=O)(=O)c1ccc(NC(=O)c2ccc3c(c2)CCCC3)cc1`, for which the cell number change stood at 43.2%. The AC50 under setting [1] was 18.4 µM [rising, partial curve].

Take `COc1cccc(CNC(=O)c2ccccc2SCC(=O)N2CCCC2)c1`: the cell number change was determined as 5.07%.

As to `Cc1ccc(NC(=O)NCCCN2CCCC2=O)cc1`, the AC50 under setting [2] was 0.517 µM [rising, single point].

On to `O=S(=O)(c1ccc2ccccc2c1)N1CCCOC1`, for which the cell number change was 1.95%. Also, the AC50 under setting [2] was 0.411 µM [falling, full curve, poor fit].

For `Cc1cc(Cl)ccc1OCC(=O)OCC(=O)NC1CCS(=O)(=O)C1` (configuration not stated), the cell number change turned out to be 6.14%. In addition, the half-maximal activity concentration (AC50) under setting [2] is 0.00461 µM [rising, full curve, poor fit].

For the compound `O=[N+]([O-])c1ccc2nc(NS(=O)(=O)c3ccccc3[N+](=O)[O-])sc2c1`, the cell number change amounted to 7.62%. Further, the concentration at half-maximal activity (AC50) under setting [1] was 0.00517 µM [rising, full curve, poor fit].
